Laboratory results published in US9134318B2, “Detection of oxidized polypeptides” (Purdue Research Foundation, priority 2009, dated 2015).

B1: U6 snRNA-associated Sm-like protein LSm2 (protein, UniProt Q9Y333 1-95, looked up)
U6 snRNA-associated Sm-like …: MLFYSFFKSLVGKDVVVELKNDLSICGTLHSVDQYLNIKLTDISVTDPEKYPHMLSVKNCFIRGSVVRYVQLPADEVDTQLLQDAARKEALQQKQ
B2: Sorting nexin-13 (protein, UniProt Q9Y5W8 1-968, looked up)
Sorting nexin-13: MLTEASLSIWGWGSLGIVLFLITFGPFVIFYLTFYILCFVGGGLVVTLLFGKTNSEKYLEQCEHSFLPPTSPGVPKCLEEMKREARTIKIDRRLTGANIIDEPLQQVIQFSLRDYVQYWYYTLSDDESFLLEIRQTLQNALIQFATRSKEIDWQPYFTTRIVDDFGTHLRVFRKAQQKITEKDDQVKGTAEDLVDTFFEVEVEMEKEVCRDLVCTSPKDEEGFLRDLCEVLLYLLLPPGDFQNKIMRYFVREILARGILLPLINQLSDPDYINQYVIWMIRDSNCNYEAFMNIIKLSDNIGELEAVRDKAAEELQYLRSLDTAGDDINTIKNQINSLLFVKKVCDSRIQRLQSGKEINTVKLAANFGKLCTVPLDSILVDNVALQFFMDYMQQTGGQAHLFFWMTVEGYRVTAQQQLEVLLSRQRDGKHQTNQTKGLLRAAAVGIYEQYLSEKASPRVTVDDYLVAKLADTLNHEDPTPEIFDDIQRKVYELMLRDERFYPSFRQNALYVRMLAELDMLKDPSFRGSDDGDGESFNGSPTGSINLSLDDLSNVSSDDSVQLHAYISDTVYADYDPYAVAGVCNDHGKTYALYAITVHRRNLNSEEMWKTYRRYSDFHDFHMRITEQFESLSSILKLPGKKTFNNMDRDFLEKRKKDLNAYLQLLLAPEMMKASPALAHYVYDFLENKAYSKGKGDFARKMDTFVNPLRNSMRNVSNAVKSLPDSLAEGMTKMSDNMGKMSERLGQDIKQSFFKVPPLIPKTDSDPEHRRVSAQLDDNVDDNIPLRVMLLLMDEVFDLKERNQWLRRNIKNLLQQLIRATYGDTINRKIVDHVDWMTSPEQVADSVKRFRDAFWPNGILAEAVPCRDKSIRMRTRVAGKTKLLAIMPDELKHIIGAETTRKGILRVFEMFQHNQLNRRMVYVFLEGFLETLFPQYKFRELFNKLHSRSKQMQKYKQKLQTTQAPSLQKR
B3: Ubiquitin carboxyl-terminal hydrolases 43 (protein, UniProt Q70EL4 1-1123, looked up)
Ubiquitin carboxyl-terminal …: MDLGPGDAAGGGPLAPRPRRRRSLRRLFSRFLLALGSRSRPGDSPPRPQPGHCDGDGEGGFACAPGPVPAAPGSPGEERPPGPQPQLQLPAGDGARPPGAQGLKNHGNTCFMNAVVQCLSNTDLLAEFLALGRYRAAPGRAEVTEQLAALVRALWTREYTPQLSAEFKNAVSKYGSQFQGNSQHDALEFLLWLLDRVHEDLEGSSRGPVSEKLPPEATKTSENCLSPSAQLPLGQSFVQSHFQAQYRSSLTCPHCLKQSNTFDPFLCVSLPIPLRQTRFLSVTLVFPSKSQRFLRVGLAVPILSTVAALRKMVAEEGGVPADEVILVELYPSGFQRSFFDEEDLNTIAEGDNVYAFQVPPSPSQGTLSAHPLGLSASPRLAAREGQRFSLSLHSESKVLILFCNLVGSGQQASRFGPPFLIREDRAVSWAQLQQSILSKVRHLMKSEAPVQNLGSLFSIRVVGLSVACSYLSPKDSRPLCHWAVDRVLHLRRPGGPPHVKLAVEWDSSVKERLFGSLQEERAQDADSVWQQQQAHQQHSCTLDECFQFYTKEEQLAQDDAWKCPHCQVLQQGMVKLSLWTLPDILIIHLKRFCQVGERRNKLSTLVKFPLSGLNMAPHVAQRSTSPEAGLGPWPSWKQPDCLPTSYPLDFLYDLYAVCNHHGNLQGGHYTAYCRNSLDGQWYSYDDSTVEPLREDEVNTRGAYILFYQKRNSIPPWSASSSMRGSTSSSLSDHWLLRLGSHAGSTRGSLLSWSSAPCPSLPQVPDSPIFTNSLCNQEKGGLEPRRLVRGVKGRSISMKAPTTSRAKQGPFKTMPLRWSFGSKEKPPGASVELVEYLESRRRPRSTSQSIVSLLTGTAGEDEKSASPRSNVALPANSEDGGRAIERGPAGVPCPSAQPNHCLAPGNSDGPNTARKLKENAGQDIKLPRKFDLPLTVMPSVEHEKPARPEGQKAMNWKESFQMGSKSSPPSPYMGFSGNSKDSRRGTSELDRPLQGTLTLLRSVFRKKENRRNERAEVSPQVPPVSLVSGGLSPAMDGQAPGSPPALRIPEGLARGLGSRLERDVWSAPSSLRLPRKASRAPRGSALGMSQRTVPGEQASYGTFQRVKYHTLSLGRKKTLPESSF

tested on: carbonylated plasma proteins; test: iTRAQ and MALDI/TOF/TOF quantitative comparison of avidin-selected carbonylated proteins, breast cancer patients vs controls (Table 8); set-up: species or system Homo sapiens; conditions: avidin-selected carbonylated protein in plasma, breast cancer patient vs matched control, iTRAQ; repeated lines of a protein = different donors; negative = lower in cancer

Row | Molecule | Breast cancer/control (fold change)
1 | B1 | −3.6 fold change
2 | B2 | −3.4 fold change
3 | B3 | 2.2 fold change
